Results are given in words; binding and its absence hold for the method and conditions named. Some binding calls cover weakened binding; strength is not graded here.
Molecular target: kinase domain of human CDK12 (residues 715-1052) (human) (UniProt Q9NYV4)
Assay: crystal structure; purified CDK12/CycK complex (10 mg/ml; 25 mM HEPES pH 7.5, 150 mM NaCl, 1 mM TCEP) incubated with YJZ5118 30 min on ice; hanging drop at 291 K, 0.1 M Bis-Tris pH 5.8, 21.5% PEG 3350, 0.4 M MgCl2; both purified

The chains behind the UniProt entries cited, without tags or fusion partners. Residues count along the entry.
UniProt Q9NYV4, residues 715-1052: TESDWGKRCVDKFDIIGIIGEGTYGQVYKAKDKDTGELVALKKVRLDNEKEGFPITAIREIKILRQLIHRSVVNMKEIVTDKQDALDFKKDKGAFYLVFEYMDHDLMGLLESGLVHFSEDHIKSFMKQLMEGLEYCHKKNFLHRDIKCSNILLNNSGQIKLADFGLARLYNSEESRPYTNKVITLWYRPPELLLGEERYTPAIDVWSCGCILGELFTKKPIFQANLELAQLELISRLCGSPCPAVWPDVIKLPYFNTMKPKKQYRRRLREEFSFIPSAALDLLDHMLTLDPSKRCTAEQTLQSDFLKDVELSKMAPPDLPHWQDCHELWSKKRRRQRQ

binding: binds
B1: cyclin box domain of human Cyclin K (residues 1-267) (domain or fragment, UniProt O75909 1-267)
chain: MKENKENSSPSVTSANLDHTKPCWYWDKKDLAHTPSQLEGLDPATEARYRREGARFIFDVGTRLGLHYDTLATGIIYFHRFYMFHSFKQFPRYVTGACCLFLAGKVEETPKKCKDIIKTARSLLNDVQFGQFGDDPKEEVMVLERILLQTIKFDLQVEHPYQFLLKYAKQLKGDKNKIQKLVQMAWTFVNDSLCTTLSLQWEPEIIAVAVMYLAGRLCKFEIQEWTSKPMYRRWWEQFVQDVPVDVLEDICHQILDLYSQGKQQMPH

From publication PMC12147761 (Journal of medicinal chemistry, 2025)
